# Measured values reported in the supplement of paper PMC6411743.
# Protein sequences, listed by entry. Tags and fused reporters are not part of them. Lines headed by an entry give the natural chain unless they say otherwise; changes in a name come on top.
# UniProt Q9UEE5: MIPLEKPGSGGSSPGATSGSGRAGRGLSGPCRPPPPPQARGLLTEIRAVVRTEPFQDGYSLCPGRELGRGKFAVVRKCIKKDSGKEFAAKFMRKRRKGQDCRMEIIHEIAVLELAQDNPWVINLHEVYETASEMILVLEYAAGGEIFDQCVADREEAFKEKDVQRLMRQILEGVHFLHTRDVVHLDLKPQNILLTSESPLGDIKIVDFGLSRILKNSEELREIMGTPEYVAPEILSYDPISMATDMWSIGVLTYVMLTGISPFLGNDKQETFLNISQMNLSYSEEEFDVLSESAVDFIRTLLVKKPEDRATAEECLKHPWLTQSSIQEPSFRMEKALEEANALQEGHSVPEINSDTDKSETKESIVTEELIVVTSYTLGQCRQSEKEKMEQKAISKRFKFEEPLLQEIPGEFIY
# UniProt Q9UPY8, whole entry: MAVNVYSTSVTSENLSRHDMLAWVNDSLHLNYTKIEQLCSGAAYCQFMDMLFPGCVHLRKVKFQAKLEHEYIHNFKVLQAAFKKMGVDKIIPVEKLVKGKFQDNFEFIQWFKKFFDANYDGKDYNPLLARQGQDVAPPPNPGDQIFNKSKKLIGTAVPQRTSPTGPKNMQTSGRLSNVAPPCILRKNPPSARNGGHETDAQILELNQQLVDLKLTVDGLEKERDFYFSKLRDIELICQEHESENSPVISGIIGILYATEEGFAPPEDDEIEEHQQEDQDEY
# UniProt Q9UQ90: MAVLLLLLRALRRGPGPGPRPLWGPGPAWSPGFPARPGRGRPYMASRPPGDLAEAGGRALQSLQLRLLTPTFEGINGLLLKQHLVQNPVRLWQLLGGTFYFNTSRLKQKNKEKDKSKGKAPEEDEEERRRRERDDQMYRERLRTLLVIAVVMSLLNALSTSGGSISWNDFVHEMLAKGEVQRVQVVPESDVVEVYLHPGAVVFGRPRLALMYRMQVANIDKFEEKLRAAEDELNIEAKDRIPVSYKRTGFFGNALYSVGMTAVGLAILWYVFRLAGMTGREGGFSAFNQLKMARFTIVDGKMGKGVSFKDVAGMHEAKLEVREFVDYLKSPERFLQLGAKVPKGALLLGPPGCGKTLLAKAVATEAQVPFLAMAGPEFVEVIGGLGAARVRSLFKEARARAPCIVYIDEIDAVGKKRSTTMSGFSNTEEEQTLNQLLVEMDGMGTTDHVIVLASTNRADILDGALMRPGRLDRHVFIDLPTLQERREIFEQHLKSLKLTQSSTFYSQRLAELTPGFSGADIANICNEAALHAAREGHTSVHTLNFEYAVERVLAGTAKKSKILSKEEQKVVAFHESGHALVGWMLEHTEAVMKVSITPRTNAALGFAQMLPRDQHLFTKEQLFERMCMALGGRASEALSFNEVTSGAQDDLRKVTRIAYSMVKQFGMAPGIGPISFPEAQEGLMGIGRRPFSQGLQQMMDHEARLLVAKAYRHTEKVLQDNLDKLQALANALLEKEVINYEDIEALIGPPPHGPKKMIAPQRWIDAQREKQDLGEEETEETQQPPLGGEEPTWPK
# UniProt Q9Y281, whole entry: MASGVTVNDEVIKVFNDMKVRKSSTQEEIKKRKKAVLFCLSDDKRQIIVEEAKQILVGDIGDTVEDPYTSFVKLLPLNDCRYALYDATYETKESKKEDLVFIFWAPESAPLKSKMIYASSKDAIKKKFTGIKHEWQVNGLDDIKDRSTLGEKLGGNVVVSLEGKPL
# UniProt Q9UQE7: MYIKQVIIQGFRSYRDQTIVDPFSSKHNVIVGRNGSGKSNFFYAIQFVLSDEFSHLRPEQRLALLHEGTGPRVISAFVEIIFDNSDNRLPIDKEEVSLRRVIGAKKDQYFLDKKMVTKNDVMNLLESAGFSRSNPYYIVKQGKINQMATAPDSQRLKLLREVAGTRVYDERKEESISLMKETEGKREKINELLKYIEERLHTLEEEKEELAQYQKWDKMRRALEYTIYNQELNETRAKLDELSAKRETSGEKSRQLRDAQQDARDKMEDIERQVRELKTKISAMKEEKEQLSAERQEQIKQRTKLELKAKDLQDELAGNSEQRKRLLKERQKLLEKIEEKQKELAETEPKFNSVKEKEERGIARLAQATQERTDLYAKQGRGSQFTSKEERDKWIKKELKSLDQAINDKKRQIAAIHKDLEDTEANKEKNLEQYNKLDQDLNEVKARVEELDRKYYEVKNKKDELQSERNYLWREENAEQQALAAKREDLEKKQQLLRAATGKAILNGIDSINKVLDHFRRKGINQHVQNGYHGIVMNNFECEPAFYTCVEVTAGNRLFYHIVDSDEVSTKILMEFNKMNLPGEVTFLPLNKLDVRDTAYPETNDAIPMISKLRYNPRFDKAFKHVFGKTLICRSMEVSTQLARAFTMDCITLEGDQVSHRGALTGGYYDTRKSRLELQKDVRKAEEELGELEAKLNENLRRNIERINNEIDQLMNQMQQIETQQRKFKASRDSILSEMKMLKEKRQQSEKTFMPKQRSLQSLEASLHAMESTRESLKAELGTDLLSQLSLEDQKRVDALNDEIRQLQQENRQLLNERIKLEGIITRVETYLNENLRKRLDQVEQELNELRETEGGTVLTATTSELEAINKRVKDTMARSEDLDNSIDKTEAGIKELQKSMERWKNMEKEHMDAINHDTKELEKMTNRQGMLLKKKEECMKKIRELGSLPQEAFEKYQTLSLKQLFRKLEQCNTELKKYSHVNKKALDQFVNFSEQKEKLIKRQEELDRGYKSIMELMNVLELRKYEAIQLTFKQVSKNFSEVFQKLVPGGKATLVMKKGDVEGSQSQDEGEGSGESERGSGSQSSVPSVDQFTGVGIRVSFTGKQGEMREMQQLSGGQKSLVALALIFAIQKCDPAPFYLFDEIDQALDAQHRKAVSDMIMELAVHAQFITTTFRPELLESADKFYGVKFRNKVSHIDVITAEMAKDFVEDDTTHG
# UniProt Q9UID3: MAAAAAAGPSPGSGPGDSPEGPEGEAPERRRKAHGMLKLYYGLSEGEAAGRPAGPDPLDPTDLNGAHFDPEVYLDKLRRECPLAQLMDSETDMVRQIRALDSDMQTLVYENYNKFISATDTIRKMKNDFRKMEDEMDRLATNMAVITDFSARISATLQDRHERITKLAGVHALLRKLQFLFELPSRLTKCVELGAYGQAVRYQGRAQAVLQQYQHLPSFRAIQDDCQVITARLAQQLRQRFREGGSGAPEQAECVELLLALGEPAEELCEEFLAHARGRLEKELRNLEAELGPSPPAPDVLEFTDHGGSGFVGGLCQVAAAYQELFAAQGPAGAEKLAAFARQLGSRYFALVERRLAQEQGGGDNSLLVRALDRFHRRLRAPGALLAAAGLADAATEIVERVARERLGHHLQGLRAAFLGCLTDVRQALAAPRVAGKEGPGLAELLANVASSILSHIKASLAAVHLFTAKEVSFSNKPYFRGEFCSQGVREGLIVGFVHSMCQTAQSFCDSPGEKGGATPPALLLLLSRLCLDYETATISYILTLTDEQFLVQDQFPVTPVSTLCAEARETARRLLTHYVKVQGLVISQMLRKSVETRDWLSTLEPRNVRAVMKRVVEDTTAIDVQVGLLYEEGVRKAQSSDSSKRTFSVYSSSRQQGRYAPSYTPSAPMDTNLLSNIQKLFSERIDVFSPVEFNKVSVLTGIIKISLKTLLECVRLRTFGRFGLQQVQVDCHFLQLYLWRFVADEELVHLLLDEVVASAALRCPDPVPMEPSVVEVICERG
# UniProt Q9UK61: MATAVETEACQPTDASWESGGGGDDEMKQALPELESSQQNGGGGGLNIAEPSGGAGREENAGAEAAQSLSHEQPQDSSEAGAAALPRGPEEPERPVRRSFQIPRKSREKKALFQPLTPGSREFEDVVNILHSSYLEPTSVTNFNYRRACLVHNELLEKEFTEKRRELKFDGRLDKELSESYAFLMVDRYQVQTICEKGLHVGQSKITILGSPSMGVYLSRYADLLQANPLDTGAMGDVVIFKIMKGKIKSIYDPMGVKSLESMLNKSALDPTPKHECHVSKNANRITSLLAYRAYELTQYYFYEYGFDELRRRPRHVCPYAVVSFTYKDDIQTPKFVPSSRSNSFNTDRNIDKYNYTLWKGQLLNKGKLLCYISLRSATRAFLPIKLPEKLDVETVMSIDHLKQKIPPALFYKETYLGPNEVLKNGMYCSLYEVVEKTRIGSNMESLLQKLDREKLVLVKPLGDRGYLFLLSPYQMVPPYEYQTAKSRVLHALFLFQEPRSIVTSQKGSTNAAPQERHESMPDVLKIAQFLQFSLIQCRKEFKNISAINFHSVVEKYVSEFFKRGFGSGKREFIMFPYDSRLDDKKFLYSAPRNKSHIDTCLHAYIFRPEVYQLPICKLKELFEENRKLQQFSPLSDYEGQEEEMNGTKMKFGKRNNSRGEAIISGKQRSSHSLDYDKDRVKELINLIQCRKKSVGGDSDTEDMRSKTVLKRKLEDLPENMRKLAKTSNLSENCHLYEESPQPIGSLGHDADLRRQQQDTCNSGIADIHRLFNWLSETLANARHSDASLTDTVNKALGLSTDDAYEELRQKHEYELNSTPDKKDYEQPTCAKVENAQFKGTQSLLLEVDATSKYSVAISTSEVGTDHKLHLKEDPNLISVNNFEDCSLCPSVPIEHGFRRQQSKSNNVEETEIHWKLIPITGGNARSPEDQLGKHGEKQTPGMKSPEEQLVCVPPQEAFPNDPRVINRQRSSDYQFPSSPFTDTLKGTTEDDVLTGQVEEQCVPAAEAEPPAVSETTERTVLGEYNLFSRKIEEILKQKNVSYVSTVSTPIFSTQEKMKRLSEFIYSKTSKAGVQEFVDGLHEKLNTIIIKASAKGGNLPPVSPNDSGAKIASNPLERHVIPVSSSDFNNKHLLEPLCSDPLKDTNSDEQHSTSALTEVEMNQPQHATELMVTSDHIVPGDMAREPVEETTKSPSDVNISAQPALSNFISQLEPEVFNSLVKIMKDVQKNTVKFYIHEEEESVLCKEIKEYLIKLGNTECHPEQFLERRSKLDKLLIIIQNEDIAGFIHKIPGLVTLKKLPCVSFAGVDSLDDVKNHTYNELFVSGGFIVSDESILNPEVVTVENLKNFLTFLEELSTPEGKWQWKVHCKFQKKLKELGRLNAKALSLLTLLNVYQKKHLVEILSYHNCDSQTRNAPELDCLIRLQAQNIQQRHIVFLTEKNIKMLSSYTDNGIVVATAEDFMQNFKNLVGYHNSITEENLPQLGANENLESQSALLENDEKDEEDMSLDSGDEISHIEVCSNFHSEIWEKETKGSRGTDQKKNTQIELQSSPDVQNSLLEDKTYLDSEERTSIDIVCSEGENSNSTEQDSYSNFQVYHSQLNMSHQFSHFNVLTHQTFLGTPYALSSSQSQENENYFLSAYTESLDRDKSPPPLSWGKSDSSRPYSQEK
# UniProt Q9UKM7: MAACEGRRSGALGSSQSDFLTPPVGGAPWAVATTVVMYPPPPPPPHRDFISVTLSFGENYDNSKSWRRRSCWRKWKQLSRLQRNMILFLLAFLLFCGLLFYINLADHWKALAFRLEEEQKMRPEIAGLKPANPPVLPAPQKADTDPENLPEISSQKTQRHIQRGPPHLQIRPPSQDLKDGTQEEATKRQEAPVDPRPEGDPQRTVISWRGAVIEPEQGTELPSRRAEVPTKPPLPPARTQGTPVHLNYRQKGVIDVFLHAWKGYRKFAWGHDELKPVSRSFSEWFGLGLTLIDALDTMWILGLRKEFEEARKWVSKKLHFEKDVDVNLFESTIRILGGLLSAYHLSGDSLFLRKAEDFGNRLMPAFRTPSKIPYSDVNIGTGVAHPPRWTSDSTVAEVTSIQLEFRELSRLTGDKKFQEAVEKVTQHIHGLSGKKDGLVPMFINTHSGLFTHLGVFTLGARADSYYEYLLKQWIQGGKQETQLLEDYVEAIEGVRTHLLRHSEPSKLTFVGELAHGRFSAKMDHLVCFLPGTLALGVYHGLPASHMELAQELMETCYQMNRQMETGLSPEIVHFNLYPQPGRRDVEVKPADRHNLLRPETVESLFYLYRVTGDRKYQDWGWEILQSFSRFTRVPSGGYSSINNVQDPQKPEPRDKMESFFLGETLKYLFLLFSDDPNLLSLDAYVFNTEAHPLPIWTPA
# UniProt Q9UJX3, whole entry: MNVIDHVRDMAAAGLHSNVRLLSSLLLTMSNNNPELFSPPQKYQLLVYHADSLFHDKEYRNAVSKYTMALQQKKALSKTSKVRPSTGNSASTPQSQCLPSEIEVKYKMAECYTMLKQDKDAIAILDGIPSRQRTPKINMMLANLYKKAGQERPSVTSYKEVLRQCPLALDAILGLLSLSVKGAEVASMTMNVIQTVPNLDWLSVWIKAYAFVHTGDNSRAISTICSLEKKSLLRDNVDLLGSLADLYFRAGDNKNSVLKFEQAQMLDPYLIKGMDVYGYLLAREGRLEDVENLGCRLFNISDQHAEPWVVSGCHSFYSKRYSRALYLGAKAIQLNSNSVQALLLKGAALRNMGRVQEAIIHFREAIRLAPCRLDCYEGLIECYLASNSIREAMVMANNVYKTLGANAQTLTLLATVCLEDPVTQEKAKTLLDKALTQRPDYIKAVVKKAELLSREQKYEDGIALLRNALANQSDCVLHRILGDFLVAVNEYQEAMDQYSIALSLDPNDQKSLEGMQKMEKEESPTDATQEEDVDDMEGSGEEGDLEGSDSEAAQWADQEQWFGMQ
# ± gives the standard deviation of the averaged measurements. This is a selection; strong and weak results do not stand in their true shares.
# Compound: Nc1ncnc2c1ncn2[C@@H]1O[C@H](COP(=O)(O)OP(=O)(O)OP(=O)(O)O)[C@@H](O)[C@H]1O [adenosine triphosphate]
# Test: NP40-soluble protein abundance relative to vehicle (solubility fold change) (ratio); higher = more soluble protein in presence of ATP
# Settings: concentration: 1mM
# How it was run: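 Across three independent experiments, values are fold changes against the detergent-processed vehicle for each replicate, based on vsn-normalised intensities. The samples were Jurkat crude lysate treated with eight concentrations (0.1 to 10 mM) for 10 min at room temperature and then 3 min at 37 °C. Lysate was solubilised with 0.8% NP40 and benzonase, ultracentrifuged, and the supernatant analysed by TMT-labelled LC-MS/MS.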
row,Target,NP40-soluble protein abundance
1,UniProt Q9UH03 and related entries,0.993 ± 0.02
2,UniProt Q9UEE5,1.19 ± 0.15
3,PPM1H (UniProt Q9ULR3),1.02 ± 0.036
4,COPG2 (UniProt Q9UBF2),1.02 ± 0.083
5,TPX2 (UniProt Q9ULW0),1.17 ± 0.064
6,UniProt Q9UDW1,0.796 ± 0.055
7,UniProt Q9Y232-2|Q9Y232,0.929 ± 0.059
8,UniProt Q9UPY8 and related entries,0.934 ± 0.05
9,UniProt Q9UDT6-2,1.08 ± 0.092
10,SPG7 (UniProt Q9UQ90),1.09 ± 0.019
11,RAB21 (UniProt Q9UL25),0.9106 ± 0.0053
12,RCC2 (UniProt Q9P258),1.04 ± 0.045
13,UniProt Q9UQ13 and related entries,1.01 ± 0.05
14,CFL2 (UniProt Q9Y281),0.872 ± 0.025
15,PFDN2 (UniProt Q9UHV9),0.89 ± 0.088
16,SMC3 (UniProt Q9UQE7),0.9943 ± 0.0032
17,VPS51 (UniProt Q9UID3),0.965 ± 0.082
18,PA2G4 (UniProt Q9UQ80),0.9222 ± 0.0047
19,STOML2 (UniProt Q9UJZ1),0.984 ± 0.075

row,Target,NP40-soluble protein abundance
1,UniProt Q9UGN5-2,1.11 ± 0.054
2,UniProt Q9UI26 and related entries,1.02 ± 0.13
3,SMG5 (UniProt Q9UPR3),0.956 ± 0.028
4,UniProt Q9UK61 and related entries,1.1 ± 0.025
5,NAGK (UniProt Q9UJ70),0.991 ± 0.04
6,ZNF219 (UniProt Q9P2Y4),1.03 ± 0.22
7,GNPTG (UniProt Q9UJJ9),0.958 ± 0.1
8,UniProt Q9UI12 and related entries,0.983 ± 0.04
9,CCNL1 (UniProt Q9UK58),1.07 ± 0.15
10,UniProt Q9Y221 and related entries,1.14 ± 0.061
11,FAM8A1 (UniProt Q9UBU6),0.974 ± 0.065
12,TMEM181 (UniProt Q9P2C4),0.99 ± 0.054
13,COPS7A (UniProt Q9UBW8),1.01 ± 0.076
14,UniProt Q9P260 and related entries,1.01 ± 0.048
15,XPO7 (UniProt Q9UIA9),0.962 ± 0.11
16,MAN1B1 (UniProt Q9UKM7),1.04 ± 0.044
17,ANAPC7 (UniProt Q9UJX3),0.996 ± 0.043
18,UniProt Q9UBB6-2|Q9UBB6 and related entries,0.877 ± 0.024
19,POMP (UniProt Q9Y244),0.901 ± 0.079

# Same assay, conditions: concentration: 2mM
row,Target,NP40-soluble protein abundance
1,UniProt Q9UH03 and related entries,0.979 ± 0.034
2,UniProt Q9UEE5,1.24 ± 0.093
3,PPM1H (UniProt Q9ULR3),0.986 ± 0.023
4,COPG2 (UniProt Q9UBF2),1 ± 0.054
5,TPX2 (UniProt Q9ULW0),1.2 ± 0.021
6,UniProt Q9UDW1,0.816 ± 0.1
7,UniProt Q9Y232-2|Q9Y232,0.999 ± 0.12
8,UniProt Q9UPY8 and related entries,0.956 ± 0.031
9,UniProt Q9UDT6-2,1.12 ± 0.13
10,SPG7 (UniProt Q9UQ90),1.08 ± 0.044
11,RAB21 (UniProt Q9UL25),0.933 ± 0.016
12,RCC2 (UniProt Q9P258),1.03 ± 0.048
13,UniProt Q9UQ13 and related entries,0.951 ± 0.056
14,CFL2 (UniProt Q9Y281),0.887 ± 0.07
15,PFDN2 (UniProt Q9UHV9),0.897 ± 0.092
16,SMC3 (UniProt Q9UQE7),0.9787 ± 0.0065
17,VPS51 (UniProt Q9UID3),0.948 ± 0.075
18,PA2G4 (UniProt Q9UQ80),0.922 ± 0.015
19,STOML2 (UniProt Q9UJZ1),0.946 ± 0.046

row,Target,NP40-soluble protein abundance
1,UniProt Q9UGN5-2,1.17 ± 0.053
2,UniProt Q9UI26 and related entries,1.04 ± 0.078
3,SMG5 (UniProt Q9UPR3),0.9436 ± 0.0076
4,UniProt Q9UK61 and related entries,1.13 ± 0.027
5,NAGK (UniProt Q9UJ70),1 ± 0.03
6,ZNF219 (UniProt Q9P2Y4),1.04 ± 0.16
7,GNPTG (UniProt Q9UJJ9),0.93 ± 0.043
8,UniProt Q9UI12 and related entries,0.964 ± 0.018
9,CCNL1 (UniProt Q9UK58),0.989 ± 0.012
10,UniProt Q9Y221 and related entries,1.15 ± 0.025
11,FAM8A1 (UniProt Q9UBU6),1 ± 0.037
12,TMEM181 (UniProt Q9P2C4),1.04 ± 0.17
13,COPS7A (UniProt Q9UBW8),1.03 ± 0.05
14,UniProt Q9P260 and related entries,1.01 ± 0.026
15,XPO7 (UniProt Q9UIA9),0.986 ± 0.068
16,MAN1B1 (UniProt Q9UKM7),1.06 ± 0.059
17,ANAPC7 (UniProt Q9UJX3),1 ± 0.014
18,UniProt Q9UBB6-2|Q9UBB6 and related entries,0.909 ± 0.049
19,POMP (UniProt Q9Y244),0.9 ± 0.084

# Same assay, conditions: concentration: 4mM
row,Target,NP40-soluble protein abundance
1,UniProt Q9UH03 and related entries,0.954 ± 0.055
2,UniProt Q9UEE5,1.15 ± 0.13
3,PPM1H (UniProt Q9ULR3),0.971 ± 0.038
4,COPG2 (UniProt Q9UBF2),0.984 ± 0.031
5,TPX2 (UniProt Q9ULW0),1.25 ± 0.046
6,UniProt Q9UDW1,0.817 ± 0.1
7,UniProt Q9Y232-2|Q9Y232,0.974 ± 0.042
8,UniProt Q9UPY8 and related entries,0.96 ± 0.073
9,UniProt Q9UDT6-2,1.15 ± 0.1
10,SPG7 (UniProt Q9UQ90),1.06 ± 0.033
11,RAB21 (UniProt Q9UL25),0.922 ± 0.039
12,RCC2 (UniProt Q9P258),1.03 ± 0.056
13,UniProt Q9UQ13 and related entries,0.958 ± 0.052
14,CFL2 (UniProt Q9Y281),0.898 ± 0.031
15,PFDN2 (UniProt Q9UHV9),0.885 ± 0.048
16,SMC3 (UniProt Q9UQE7),0.968 ± 0.013
17,VPS51 (UniProt Q9UID3),0.986 ± 0.051
18,PA2G4 (UniProt Q9UQ80),0.874 ± 0.026
19,STOML2 (UniProt Q9UJZ1),0.934 ± 0.062

row,Target,NP40-soluble protein abundance
1,UniProt Q9UGN5-2,1.24 ± 0.023
2,UniProt Q9UI26 and related entries,1.04 ± 0.049
3,SMG5 (UniProt Q9UPR3),1 ± 0.017
4,UniProt Q9UK61 and related entries,1.16 ± 0.034
5,NAGK (UniProt Q9UJ70),1.01 ± 0.019
6,ZNF219 (UniProt Q9P2Y4),1.07 ± 0.092
7,GNPTG (UniProt Q9UJJ9),0.964 ± 0.081
8,UniProt Q9UI12 and related entries,0.934 ± 0.014
9,CCNL1 (UniProt Q9UK58),0.8513 ± 0.0047
10,UniProt Q9Y221 and related entries,1.38 ± 0.048
11,FAM8A1 (UniProt Q9UBU6),0.966 ± 0.051
12,TMEM181 (UniProt Q9P2C4),1.09 ± 0.21
13,COPS7A (UniProt Q9UBW8),0.986 ± 0.043
14,UniProt Q9P260 and related entries,0.971 ± 0.058
15,XPO7 (UniProt Q9UIA9),0.951 ± 0.025
16,MAN1B1 (UniProt Q9UKM7),1.1 ± 0.084
17,ANAPC7 (UniProt Q9UJX3),0.993 ± 0.04
18,UniProt Q9UBB6-2|Q9UBB6 and related entries,0.893 ± 0.023
19,POMP (UniProt Q9Y244),0.865 ± 0.076
